PubChem BioAssay AID743454 – Peter MacCallum Cancer Centre, 2014
Here is an unselected part of about 18,000 reagents. 450 of all reagents (2.5%) count as active. 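Single biological run; no consistent viability z cut-off exists, so the class columns, not z-scores, define the calls.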 Entries without a mark were called inactive.

- Assay: 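Genes whose loss kills vorinostat-resistant colon cancer cells under vorinostat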 (primary screen)
- Cells: human HCT116-VR colon cancer cells, selected for vorinostat resistance
- Reagent: siRNA pool against human genes, 40 nM siRNA pool
- Time to read-out: vorinostat for 24 h, read-out about 72 h after transfection
- Challenge: vorinostat at 2.5 µM final
- Detection: 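Cell viability by CellTiter-Fluor and caspase 3/7 activity by luminescence, each scaled to mock wells per plate, duplicates averaged, then robust z-scored over all plates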
- Scale: viability robust z-score: higher = more viable cells than screen typical; caspase robust z-score: higher = more caspase 3/7 activity than screen typical
- Call rule: 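Hits are knock-downs in viability class RV1/RV2 or caspase class CA1/CA2, excluding ones that killed cells in the no-drug cell-count arm; hits then retested with single siRNAs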

target | PubChem SID | viability hit class | caspase hit class | viability robust z-score | caspase robust z-score
SRSF7 (serine and arginine rich splicing factor 7) | SID152148819 | no change | no change | -0.8 | 3.8
GPR174 (G protein-coupled receptor 174) | SID135621002 | no change | no change | -2.46 | -1.37
ZNF689 (zinc finger protein 689) | SID134319646 | no change | no change | 0.83 | 2.45
SIRT3 (sirtuin 3) | SID135620893 | no change | no change | -0.36 | -0.51
PRSS22 (serine protease 22) | SID152152047 | no change | no change | -1.07 | 1.3
DDX50 (DExD-box helicase 50) | SID134310341 | no change | no change | 1.65 | -0.16
IGSF21 (immunoglobin superfamily member 21) | SID134322480 | no change | no change | 0.33 | -0.65
CATSPER4 (cation channel sperm associated 4) | SID152151859 | no change (active) | CA2 (caspase activation) | -1.75 | 5.19
NRIP1 (nuclear receptor interacting protein 1) | SID152154543 | no change | no change | -0.29 | -0.88
SYT4 (synaptotagmin 4) | SID134318238 | no change | no change | -1.04 | -0.34
IP6K1 (inositol hexakisphosphate kinase 1) | SID135621239 | no change | no change | 0.7 | 0.1
OR7G1 (olfactory receptor family 7 subfamily G member 1) | SID135624428 | no change | no change | -0.8 | 0.91
SYBU (syntabulin) | SID152156286 | no change | no change | -0.72 | -0.24
GREM2 (gremlin 2, DAN family BMP antagonist) | SID135623455 | no change | no change | -0.31 | -0.02
UGT2B28 (UDP glucuronosyltransferase family 2 member B28) | SID135622906 | no change | no change | -0.43 | -0.74
INTS8 (integrator complex subunit 8) | SID135623956 | no change | no change | -0.32 | -0.17
KNCN (kinocilin) | SID152150589 | no change (active) | CA2 (caspase activation) | -0.88 | 5.71
FCGR2B (Fc gamma receptor IIb) | SID135623029 | no change | no change | -2.62 | -1.02
PGD (phosphogluconate dehydrogenase) | SID134313248 | no change | no change | -0.62 | -0.7
CNIH4 (cornichon family member 4) | SID135624043 | no change | no change | 0.36 | -0.25
DYDC2 (DPY30 domain containing 2) | SID135622836 | no change | no change | 0.27 | 2.62
TNNI1 (troponin I1, slow skeletal type) | SID152155460 | no change | no change | 0.21 | -0.84
SUN3 (Sad1 and UNC84 domain containing 3) | SID152147856 | no change | no change | -0.29 | -0.88
TRIM63 (tripartite motif containing 63) | SID152155905 | no change | no change | -2.83 | 2.5
PRRC2A (proline rich coiled-coil 2A) | SID152156461 | no change | no change | -0.57 | 1.05
INTS10 (integrator complex subunit 10) | SID152149794 | no change | no change | 0.62 | -0.93
VENTX (VENT homeobox) | SID134316795 | no change | no change | 0.4 | -1.03
FAM167A (family with sequence similarity 167 member A) | SID134319247 | no change | no change | -0.74 | 0.96
CRHR2 (corticotropin releasing hormone receptor 2) | SID135620995 | no change | no change | 0.36 | -0.85
MRPL15 (mitochondrial ribosomal protein L15) | SID134317292 | no change | no change | 0.32 | -0.07
MGAT2 | SID152152267 | no change | no change | 0.3 | -0.36
PLCXD1 | SID152149616 | no change | no change | 0.89 | 3.64
OR3A2 (olfactory receptor family 3 subfamily A member 2) | SID152150675 | no change | no change | 0.31 | 0.64
LILRB4 (leukocyte immunoglobulin like receptor B4) | SID135623273 | no change | no change | 0.72 | -0.09
STARD8 (StAR related lipid transfer domain containing 8) | SID134314835 | no change | no change | 1.35 | 2.14
COMMD6 (COMM domain containing 6) | SID152154223 | no change | no change | 0.38 | 0.07
DMAP1 (DNA methyltransferase 1 associated protein 1) | SID152148507 | no change | no change | -1.19 | 0.82
ARF4 (ARF GTPase 4) | SID135622152 | no change | no change | 0.34 | -0.38
HS3ST3A1 (heparan sulfate-glucosamine 3-sulfotransferase 3A1) | SID134313397 | no change | no change | -0.68 | -0.24
TMEM52 (transmembrane protein 52) | SID135623407 | no change | no change | -0.08 | -0.42
PCDH18 (protocadherin 18) | SID152154940 | no change | no change | -0.7 | 4.57
SVIL (supervillin) | SID152155507 | no change | no change | -1.29 | 0.34
SLC39A1 | SID134312610 | no change | no change | 0.23 | -0.84
TMPRSS11F (transmembrane serine protease 11F) | SID152152640 | RV2 (reduced viability) (active) | no change | -3.4 | 3.41
BRSK2 (BR serine/threonine kinase 2) | SID152155603 | no change | no change | 1.08 | -0.96
CSF2RB (colony stimulating factor 2 receptor subunit beta) | SID134312803 | no change | no change | -0.97 | 1.07
MBOAT1 (membrane bound glycerophospholipid O-acyltransferase 1) | SID152151471 | no change | no change | 0.17 | 1.41
KCNK12 (potassium two pore domain channel subfamily K member 12) | SID134311674 | no change | no change | -0.08 | 1.35
OR4K1 (olfactory receptor family 4 subfamily K member 1) | SID134329834 | no change | no change | -0.58 | -0.28
TERF1 (telomeric repeat binding factor 1) | SID135621958 | no change | no change | 0.11 | -0.82
TJAP1 (tight junction associated protein 1) | SID134319284 | no change | no change | -1.32 | 0.45
ZNF804A (zinc finger protein 804A) | SID134323144 | no change | no change | 0.04 | 0.67
PLCE1 (phospholipase C epsilon 1) | SID135620790 | no change | no change | -0.58 | 0.93
FKBP2 (FKBP prolyl isomerase 2) | SID134313786 | no change | no change | 0.41 | 0.56
CXCR6 (C-X-C motif chemokine receptor 6) | SID134310921 | no change | no change | 0.54 | -0.14
SMAD7 (SMAD family member 7) | SID152156090 | no change | no change | 1.1 | -0.73
GPBP1L1 (GC-rich promoter binding protein 1 like 1) | SID134320453 | no change | no change | -0.96 | -0.04

A run of entries of the results above:
target | PubChem SID | viability hit class | caspase hit class | viability robust z-score | caspase robust z-score
BRSK2 (BR serine/threonine kinase 2) | SID152155603 | no change | no change | 1.08 | -0.96
CSF2RB (colony stimulating factor 2 receptor subunit beta) | SID134312803 | no change | no change | -0.97 | 1.07
MBOAT1 (membrane bound glycerophospholipid O-acyltransferase 1) | SID152151471 | no change | no change | 0.17 | 1.41
KCNK12 (potassium two pore domain channel subfamily K member 12) | SID134311674 | no change | no change | -0.08 | 1.35
